Assay results reported in the supplement of paper PMC10849652.
The other results are listed elsewhere or left out.

Chains of the proteins cited; added tags and fusions are not shown. Lines headed by an entry give the natural chain unless they say otherwise; changes in a name come on top.
UniProt Q6ZRR7: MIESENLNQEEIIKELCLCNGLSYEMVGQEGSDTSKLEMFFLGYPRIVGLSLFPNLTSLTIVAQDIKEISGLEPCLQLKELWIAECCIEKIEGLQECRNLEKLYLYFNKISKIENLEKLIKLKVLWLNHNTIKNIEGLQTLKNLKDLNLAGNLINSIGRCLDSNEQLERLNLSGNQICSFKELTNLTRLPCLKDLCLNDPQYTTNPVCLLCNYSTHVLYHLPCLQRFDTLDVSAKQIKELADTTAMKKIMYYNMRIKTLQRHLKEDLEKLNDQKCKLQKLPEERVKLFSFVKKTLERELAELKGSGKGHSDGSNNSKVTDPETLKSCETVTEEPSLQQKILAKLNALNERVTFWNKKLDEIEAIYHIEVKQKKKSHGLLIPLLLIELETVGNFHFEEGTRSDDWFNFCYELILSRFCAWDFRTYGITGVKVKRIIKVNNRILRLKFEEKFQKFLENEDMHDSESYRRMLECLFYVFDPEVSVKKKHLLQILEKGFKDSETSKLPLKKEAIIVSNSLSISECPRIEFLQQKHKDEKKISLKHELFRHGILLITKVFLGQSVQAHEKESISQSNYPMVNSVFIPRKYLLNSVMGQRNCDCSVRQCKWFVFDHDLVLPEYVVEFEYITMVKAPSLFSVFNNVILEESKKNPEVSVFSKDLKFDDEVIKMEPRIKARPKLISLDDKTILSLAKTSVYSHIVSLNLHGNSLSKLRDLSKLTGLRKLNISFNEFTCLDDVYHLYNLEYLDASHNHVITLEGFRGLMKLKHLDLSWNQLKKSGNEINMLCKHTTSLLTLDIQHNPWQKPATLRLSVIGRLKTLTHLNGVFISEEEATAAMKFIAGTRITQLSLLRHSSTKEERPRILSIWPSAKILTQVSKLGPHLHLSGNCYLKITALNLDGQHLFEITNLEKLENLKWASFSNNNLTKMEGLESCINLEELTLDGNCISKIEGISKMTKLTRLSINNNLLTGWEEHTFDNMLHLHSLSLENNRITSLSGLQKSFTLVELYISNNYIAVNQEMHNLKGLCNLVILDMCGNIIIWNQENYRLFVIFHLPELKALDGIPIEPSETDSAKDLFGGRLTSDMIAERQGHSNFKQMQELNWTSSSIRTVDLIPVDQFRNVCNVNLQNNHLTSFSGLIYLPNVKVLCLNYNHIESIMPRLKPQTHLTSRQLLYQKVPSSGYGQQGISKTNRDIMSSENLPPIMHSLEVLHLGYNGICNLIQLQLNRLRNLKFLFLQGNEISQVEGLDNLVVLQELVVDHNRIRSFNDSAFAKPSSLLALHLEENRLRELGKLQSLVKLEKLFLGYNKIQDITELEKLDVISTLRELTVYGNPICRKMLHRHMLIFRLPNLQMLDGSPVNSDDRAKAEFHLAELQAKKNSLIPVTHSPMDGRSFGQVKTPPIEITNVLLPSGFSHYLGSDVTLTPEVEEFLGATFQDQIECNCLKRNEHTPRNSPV
UniProt Q7Z4F1: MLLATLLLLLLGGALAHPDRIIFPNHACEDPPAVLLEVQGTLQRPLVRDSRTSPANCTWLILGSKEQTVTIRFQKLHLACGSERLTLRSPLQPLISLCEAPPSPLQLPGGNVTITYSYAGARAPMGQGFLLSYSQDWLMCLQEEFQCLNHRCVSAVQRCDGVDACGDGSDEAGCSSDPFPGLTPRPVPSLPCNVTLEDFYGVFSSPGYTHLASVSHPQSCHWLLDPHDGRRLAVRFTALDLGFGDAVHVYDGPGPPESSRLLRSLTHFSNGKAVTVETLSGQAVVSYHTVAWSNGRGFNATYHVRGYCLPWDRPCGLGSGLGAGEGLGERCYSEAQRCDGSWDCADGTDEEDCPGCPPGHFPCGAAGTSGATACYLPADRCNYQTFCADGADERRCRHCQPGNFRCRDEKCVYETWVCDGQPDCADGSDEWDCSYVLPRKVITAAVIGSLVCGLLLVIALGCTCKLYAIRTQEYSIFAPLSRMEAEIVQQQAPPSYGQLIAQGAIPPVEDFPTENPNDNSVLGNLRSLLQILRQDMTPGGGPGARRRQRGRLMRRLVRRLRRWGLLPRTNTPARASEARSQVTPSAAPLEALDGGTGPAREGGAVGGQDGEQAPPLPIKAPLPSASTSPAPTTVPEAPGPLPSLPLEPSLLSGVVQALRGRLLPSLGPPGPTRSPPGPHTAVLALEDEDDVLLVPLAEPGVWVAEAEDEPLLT
UniProt Q99732: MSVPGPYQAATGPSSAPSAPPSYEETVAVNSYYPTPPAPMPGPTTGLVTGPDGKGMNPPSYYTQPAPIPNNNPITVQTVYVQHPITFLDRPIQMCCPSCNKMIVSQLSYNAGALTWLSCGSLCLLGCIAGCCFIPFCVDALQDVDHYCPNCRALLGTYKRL
UniProt O15243: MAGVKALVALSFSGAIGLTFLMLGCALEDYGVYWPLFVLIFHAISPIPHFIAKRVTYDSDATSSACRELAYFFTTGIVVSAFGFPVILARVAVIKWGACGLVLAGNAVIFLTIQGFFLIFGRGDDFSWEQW
UniProt Q53QV2: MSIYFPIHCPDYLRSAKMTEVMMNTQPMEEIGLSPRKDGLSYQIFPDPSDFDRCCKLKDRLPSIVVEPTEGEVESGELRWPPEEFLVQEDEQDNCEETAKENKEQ
UniProt P83369: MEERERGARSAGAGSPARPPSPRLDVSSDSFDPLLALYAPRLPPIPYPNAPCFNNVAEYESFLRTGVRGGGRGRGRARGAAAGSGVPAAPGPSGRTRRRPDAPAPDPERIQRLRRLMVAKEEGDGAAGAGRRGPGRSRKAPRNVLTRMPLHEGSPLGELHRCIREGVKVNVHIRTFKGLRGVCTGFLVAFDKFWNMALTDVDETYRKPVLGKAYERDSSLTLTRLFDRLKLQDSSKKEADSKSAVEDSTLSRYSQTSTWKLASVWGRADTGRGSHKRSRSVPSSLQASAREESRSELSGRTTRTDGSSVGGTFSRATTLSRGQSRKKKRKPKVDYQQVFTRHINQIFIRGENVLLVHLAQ
UniProt Q1L5Z9: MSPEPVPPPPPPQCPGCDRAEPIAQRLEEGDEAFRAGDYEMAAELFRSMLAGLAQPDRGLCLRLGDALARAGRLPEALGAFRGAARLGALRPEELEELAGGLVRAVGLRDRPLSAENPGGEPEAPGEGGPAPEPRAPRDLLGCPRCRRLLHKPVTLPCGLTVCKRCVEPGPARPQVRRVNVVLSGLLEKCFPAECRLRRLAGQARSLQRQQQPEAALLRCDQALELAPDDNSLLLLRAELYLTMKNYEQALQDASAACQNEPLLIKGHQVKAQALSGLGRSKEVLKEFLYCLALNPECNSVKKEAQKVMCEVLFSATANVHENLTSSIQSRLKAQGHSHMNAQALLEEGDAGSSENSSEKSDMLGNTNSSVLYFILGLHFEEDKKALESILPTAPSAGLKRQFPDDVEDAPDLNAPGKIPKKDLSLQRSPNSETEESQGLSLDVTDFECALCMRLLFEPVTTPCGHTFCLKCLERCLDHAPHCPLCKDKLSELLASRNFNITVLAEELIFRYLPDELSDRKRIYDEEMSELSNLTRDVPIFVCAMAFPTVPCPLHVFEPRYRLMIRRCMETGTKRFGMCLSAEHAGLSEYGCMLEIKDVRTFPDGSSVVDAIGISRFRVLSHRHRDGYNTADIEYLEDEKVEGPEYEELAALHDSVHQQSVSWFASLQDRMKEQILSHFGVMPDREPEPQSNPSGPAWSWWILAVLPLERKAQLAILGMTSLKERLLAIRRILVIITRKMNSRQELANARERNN
UniProt Q6P5S2: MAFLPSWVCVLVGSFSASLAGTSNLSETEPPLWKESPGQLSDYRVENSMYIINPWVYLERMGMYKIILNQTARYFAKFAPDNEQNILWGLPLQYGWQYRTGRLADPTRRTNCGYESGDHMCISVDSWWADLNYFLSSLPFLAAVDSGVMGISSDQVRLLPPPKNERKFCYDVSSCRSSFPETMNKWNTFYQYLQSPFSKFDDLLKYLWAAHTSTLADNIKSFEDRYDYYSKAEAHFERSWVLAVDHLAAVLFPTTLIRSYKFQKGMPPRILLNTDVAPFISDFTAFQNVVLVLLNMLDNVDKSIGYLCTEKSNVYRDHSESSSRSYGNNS
UniProt Q86WU2: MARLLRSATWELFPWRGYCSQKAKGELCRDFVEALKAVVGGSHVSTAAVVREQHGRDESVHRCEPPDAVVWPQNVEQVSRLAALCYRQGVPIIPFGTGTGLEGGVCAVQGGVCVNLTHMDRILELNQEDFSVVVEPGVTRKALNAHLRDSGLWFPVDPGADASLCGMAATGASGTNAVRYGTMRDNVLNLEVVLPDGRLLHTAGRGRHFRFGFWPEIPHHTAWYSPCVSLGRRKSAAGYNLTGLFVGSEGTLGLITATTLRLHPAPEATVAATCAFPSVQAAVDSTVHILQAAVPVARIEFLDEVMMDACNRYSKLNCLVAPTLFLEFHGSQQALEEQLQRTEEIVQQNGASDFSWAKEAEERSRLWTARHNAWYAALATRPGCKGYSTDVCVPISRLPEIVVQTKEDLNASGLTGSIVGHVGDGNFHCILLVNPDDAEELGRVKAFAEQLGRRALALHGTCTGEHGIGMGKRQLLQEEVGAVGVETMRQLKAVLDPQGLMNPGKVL
UniProt Q969L4: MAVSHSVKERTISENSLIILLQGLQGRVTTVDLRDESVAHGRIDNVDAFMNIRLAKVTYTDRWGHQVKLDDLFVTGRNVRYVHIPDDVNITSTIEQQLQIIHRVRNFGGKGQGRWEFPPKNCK
UniProt Q9Y2U8: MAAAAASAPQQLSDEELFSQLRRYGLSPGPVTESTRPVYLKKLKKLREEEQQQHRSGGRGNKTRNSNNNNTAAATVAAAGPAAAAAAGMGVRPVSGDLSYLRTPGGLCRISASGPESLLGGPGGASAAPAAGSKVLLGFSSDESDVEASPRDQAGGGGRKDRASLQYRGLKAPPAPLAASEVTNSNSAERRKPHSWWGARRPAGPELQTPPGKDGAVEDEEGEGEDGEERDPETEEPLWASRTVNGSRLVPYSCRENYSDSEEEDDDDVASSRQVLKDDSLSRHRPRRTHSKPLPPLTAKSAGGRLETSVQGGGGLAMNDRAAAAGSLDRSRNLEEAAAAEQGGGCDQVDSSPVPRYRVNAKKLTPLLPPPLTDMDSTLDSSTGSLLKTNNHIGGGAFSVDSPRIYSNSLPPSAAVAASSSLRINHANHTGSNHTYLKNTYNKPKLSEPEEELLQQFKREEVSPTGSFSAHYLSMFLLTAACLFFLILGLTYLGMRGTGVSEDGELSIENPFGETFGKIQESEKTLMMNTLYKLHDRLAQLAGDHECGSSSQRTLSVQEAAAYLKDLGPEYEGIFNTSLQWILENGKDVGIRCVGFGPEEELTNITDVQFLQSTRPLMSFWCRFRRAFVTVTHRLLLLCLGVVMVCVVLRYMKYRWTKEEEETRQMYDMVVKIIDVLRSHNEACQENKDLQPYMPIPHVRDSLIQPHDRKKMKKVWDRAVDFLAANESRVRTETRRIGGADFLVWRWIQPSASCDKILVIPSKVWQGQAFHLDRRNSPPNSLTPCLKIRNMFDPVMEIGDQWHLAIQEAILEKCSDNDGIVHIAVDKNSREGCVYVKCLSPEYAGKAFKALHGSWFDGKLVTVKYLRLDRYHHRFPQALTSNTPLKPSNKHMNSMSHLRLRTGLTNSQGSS
UniProt Q8N3X6: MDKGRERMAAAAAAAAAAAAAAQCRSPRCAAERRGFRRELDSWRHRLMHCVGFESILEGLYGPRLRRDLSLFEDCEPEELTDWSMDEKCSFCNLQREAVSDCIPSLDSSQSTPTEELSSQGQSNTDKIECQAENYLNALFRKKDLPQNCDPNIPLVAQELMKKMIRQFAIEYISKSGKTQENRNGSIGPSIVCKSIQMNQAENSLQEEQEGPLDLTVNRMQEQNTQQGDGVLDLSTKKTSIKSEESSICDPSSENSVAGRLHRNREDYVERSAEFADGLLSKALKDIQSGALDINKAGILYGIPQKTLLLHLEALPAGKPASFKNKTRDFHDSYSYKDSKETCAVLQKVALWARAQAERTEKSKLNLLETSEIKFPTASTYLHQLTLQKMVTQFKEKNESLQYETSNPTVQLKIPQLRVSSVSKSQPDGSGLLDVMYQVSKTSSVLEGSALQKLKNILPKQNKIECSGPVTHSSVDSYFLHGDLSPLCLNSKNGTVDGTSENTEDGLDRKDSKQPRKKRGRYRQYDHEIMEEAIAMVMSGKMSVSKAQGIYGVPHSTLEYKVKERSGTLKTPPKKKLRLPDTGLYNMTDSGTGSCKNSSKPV
UniProt Q9UJU2, whole entry, looked up: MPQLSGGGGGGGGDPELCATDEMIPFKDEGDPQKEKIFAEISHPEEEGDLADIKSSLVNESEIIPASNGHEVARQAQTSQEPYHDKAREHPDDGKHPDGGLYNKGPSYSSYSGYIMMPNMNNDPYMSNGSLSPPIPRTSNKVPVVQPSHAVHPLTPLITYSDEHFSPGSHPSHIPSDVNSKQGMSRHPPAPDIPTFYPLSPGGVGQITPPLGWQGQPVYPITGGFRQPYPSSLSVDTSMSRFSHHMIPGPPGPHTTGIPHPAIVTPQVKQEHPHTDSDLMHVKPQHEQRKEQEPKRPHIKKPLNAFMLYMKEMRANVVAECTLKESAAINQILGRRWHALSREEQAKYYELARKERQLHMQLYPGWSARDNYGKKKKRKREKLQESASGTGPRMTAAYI

Each target was assayed with CC[C@@H]1C(=O)N(C)c2cnc(Nc3ccc(C(=O)NC4CCN(C)CC4)cc3OC)nc2N1C1CCCC1 (assay: log2 fold change, soluble protein after heating vs DMSO (PISA); higher = thermal stabilisation; K562 lysate, 10 uM; active = over 0.2 and 3.5 SD of the protein, either way, in both replicates (recomputed)).
In short: (§1)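 Log-two fold change in thermal stability relative to solvent controls is reported from duplicates. For each sample, crude K562 extract from dounce-homogenised pellets in PBS pH 7.4 with 1 mM MgCl2, at 1 mg/mL protein, was treated with 10 μM compound for 30 min. Aliquots heated for 3 min across 48°C-58°C were pooled, brought to 0.5% NP-40 at 4°C and cleared at 21,000xg for 90 min. The supernatant was quantified by TMTpro 16plex LC-MS/MS with channel sums equalised.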

Target | log2 fold change
LRRC25 (UniProt Q8N386) | inactive: 0.021
LIPT2 (UniProt A6NK58) | inactive: -0.057
LRRC9 (UniProt Q6ZRR7) | inactive: -0.022
LRP10 (UniProt Q7Z4F1) | inactive: 0.161
LEMD2 (UniProt Q8NC56) | inactive: 0
LCA5 (UniProt Q86VQ0) | inactive: 0.127
LITAF (UniProt Q99732) | inactive: 0.002
LEPROT (UniProt O15243) | inactive: 0.144
LBH (UniProt Q53QV2) | inactive: 0.145
LRP5 (UniProt O75197) | inactive: 0.151
LSM11 (UniProt P83369) | inactive: 0.06
LRP6 (UniProt O75581) | inactive: -0.085
LRG1 (UniProt P02750) | inactive: -0.047
LIG1 isoform 3 (UniProt P18858) | inactive: 0.114
LONRF2 (UniProt Q1L5Z9) | inactive: 0.155
LEG1 (UniProt Q6P5S2) | inactive: -0.084
LDHD (UniProt Q86WU2) | inactive: 0.093
LPGAT1 (UniProt Q92604) | inactive: -0.058

What follows are targets tested with CC[C@@H]1C(=O)N(C)c2cnc(Nc3ccc(C(=O)N[C@H]4CC[C@H](N5CCN(CC6CC6)CC5)CC4)cc3OC)nc2N1C(C)C [volasertib] in the same assay as above.
In short: as §1

Target | log2 fold change
LRRC25 (UniProt Q8N386) | inactive: 0.107
LIPT2 (UniProt A6NK58) | inactive: -0.054
LSM14B (UniProt Q9BX40) | inactive: 0.037
LDHA (UniProt F5GZQ4) | inactive: -0.052
LEMD2 (UniProt Q8NC56) | inactive: 0.04
LSM10 (UniProt Q969L4) | inactive: 0
LITAF (UniProt Q99732) | inactive: -0.015
LEPROT (UniProt O15243) | inactive: 0.102
LEMD3 (UniProt Q9Y2U8) | inactive: -0.024
LDHA isoform 4 (UniProt P00338) | inactive: -0.043
LRCH1 isoform 3 (UniProt Q9Y2L9) | inactive: -0.017
LCOR isoform 3 (UniProt Q96JN0) | inactive: 0.083
LEG1 (UniProt Q6P5S2) | inactive: -0.013
LIN52 (UniProt Q52LA3) | inactive: -0.21

These targets were tested with CCn1c(C(=O)N(C2CC2)C2CC2)cc2c3c(ncn3C)c(Nc3cc(C)n(C)n3)nc21 in the same assay as above.
In short: as §1

Target | log2 fold change
LCORL (UniProt Q8N3X6) | inactive: -0.197
LSM14B (UniProt Q9BX40) | inactive: -0.033
LDHA (UniProt F5GZQ4) | inactive: -0.214
LEF1 (UniProt Q9UJU2) | inactive: 0.048
LRP10 (UniProt Q7Z4F1) | inactive: -0.017
LEMD2 (UniProt Q8NC56) | inactive: 0.005
LSM10 (UniProt Q969L4) | inactive: -0.079
LITAF (UniProt Q99732) | inactive: 0.082
LEPROT (UniProt O15243) | inactive: -0.086
LBH (UniProt Q53QV2) | inactive: 0.136
LEMD3 (UniProt Q9Y2U8) | inactive: 0.081
LRCH1 isoform 3 (UniProt Q9Y2L9) | inactive: 0.42
LRP6 (UniProt O75581) | inactive: -0.077
LIG1 isoform 3 (UniProt P18858) | inactive: -0.068
LEG1 (UniProt Q6P5S2) | inactive: 0.101
LIN52 (UniProt Q52LA3) | inactive: -0.04
LPGAT1 (UniProt Q92604) | inactive: 0.127

Each target was assayed with CCn1cc(-c2ccnc3[nH]c(-c4cccc(CN(C)C)c4)cc23)c(-c2ccc(NC(=O)N(C)C)cc2)n1 in the same assay as above.
In short: as §1

Target | log2 fold change
LMBR1 isoform 3 (UniProt Q8WVP7) | inactive: -0.08
LONP2 (UniProt Q86WA8) | inactive: -0.185
LRRC9 (UniProt Q6ZRR7) | inactive: -0.25
LCORL (UniProt Q8N3X6) | inactive: -0.09
LDHA (UniProt F5GZQ4) | inactive: 0.548
LEF1 (UniProt Q9UJU2) | inactive: 0.013
LRP10 (UniProt Q7Z4F1) | inactive: 0.05
LEMD2 (UniProt Q8NC56) | inactive: 0
LSM10 (UniProt Q969L4) | inactive: -0.064
LEPROT (UniProt O15243) | inactive: -0.043
LBH (UniProt Q53QV2) | inactive: 0.09
LEMD3 (UniProt Q9Y2U8) | inactive: 0.04
LSM11 (UniProt P83369) | inactive: 0.115
LSR isoform 3 (UniProt Q86X29) | inactive: -0.057
LIN28A (UniProt Q9H9Z2) | inactive: 0.104
LDHA isoform 4 (UniProt P00338) | inactive: -0.716
LRG1 (UniProt P02750) | inactive: 0.006
LONRF2 (UniProt Q1L5Z9) | inactive: 0.093
LDHD (UniProt Q86WU2) | inactive: -0.027
LPGAT1 (UniProt Q92604) | inactive: 0.137
LATS1 (UniProt O95835) | inactive: -0.028

Each target was assayed with CN1CCC(CNc2ccc3ncc(-c4cccc(OC(F)(F)F)c4)n3n2)CC1 in the same assay as above.
In short: as §1

Target | log2 fold change
LMBR1 isoform 3 (UniProt Q8WVP7) | inactive: 0.094
LONP2 (UniProt Q86WA8) | inactive: 0.142
LRRC9 (UniProt Q6ZRR7) | inactive: 0.131
LCORL (UniProt Q8N3X6) | inactive: 0.041
LDHA (UniProt F5GZQ4) | inactive: 0.045
LEF1 (UniProt Q9UJU2) | inactive: 0.039
LRP10 (UniProt Q7Z4F1) | inactive: -0.11
LEMD2 (UniProt Q8NC56) | inactive: -0.017
LSM10 (UniProt Q969L4) | inactive: -0.009
LEPROT (UniProt O15243) | inactive: -0.02
LBH (UniProt Q53QV2) | inactive: -0.024
LEMD3 (UniProt Q9Y2U8) | inactive: 0.005
LSM11 (UniProt P83369) | inactive: 0.212
LSR isoform 3 (UniProt Q86X29) | inactive: -0.028
LIN28A (UniProt Q9H9Z2) | inactive: 0.103
LDHA isoform 4 (UniProt P00338) | inactive: 0.093
LRG1 (UniProt P02750) | inactive: -0.023
LONRF2 (UniProt Q1L5Z9) | inactive: -0.05
LDHD (UniProt Q86WU2) | inactive: 0.214
LPGAT1 (UniProt Q92604) | inactive: -0.044
LATS1 (UniProt O95835) | inactive: -0.019
